Reference: US20160015828A1 (AbbVie / Abbott, published 2016)
Residue numbers refer to the chain shown, from its start. These are yes or no findings as the source states them, for the method shown. Some binding calls cover weakened binding; strength is not graded here.

By UniProt entry, the sequences of proteins in these tests, tags left out. Where a name states a change or a piece, a line headed by the entry shows the natural chain unless it says otherwise.
UniProt Q9NYJ7: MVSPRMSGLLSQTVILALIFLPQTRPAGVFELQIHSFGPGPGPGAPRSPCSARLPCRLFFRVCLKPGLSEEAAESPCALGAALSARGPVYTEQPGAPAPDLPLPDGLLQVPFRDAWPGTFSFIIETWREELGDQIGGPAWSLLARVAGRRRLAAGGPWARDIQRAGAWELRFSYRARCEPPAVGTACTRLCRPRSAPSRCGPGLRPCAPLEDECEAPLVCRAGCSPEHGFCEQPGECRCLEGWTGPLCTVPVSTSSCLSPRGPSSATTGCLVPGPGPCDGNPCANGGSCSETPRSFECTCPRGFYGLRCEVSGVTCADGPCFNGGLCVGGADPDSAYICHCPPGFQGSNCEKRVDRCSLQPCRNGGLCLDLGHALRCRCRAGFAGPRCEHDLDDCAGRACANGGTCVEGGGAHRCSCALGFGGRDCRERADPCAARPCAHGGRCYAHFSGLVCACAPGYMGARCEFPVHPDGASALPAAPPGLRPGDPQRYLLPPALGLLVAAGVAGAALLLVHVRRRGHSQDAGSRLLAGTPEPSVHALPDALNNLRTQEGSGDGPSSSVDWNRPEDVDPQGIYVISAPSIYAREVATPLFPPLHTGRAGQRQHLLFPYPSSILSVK

B1: SC16.149 (antibody, V domains shown)
VH: QVQLKESGPGLVAPSQSLSITCAVSGFSLTSFGVHWVRQPPGKGLEWLGVIWAGGSTNYYSALMSRLSISIDNSKSQVFLKMNSLQTDDTAMYYCARDWEGWFAYWGQGTLVTVSA
VL: DIQMNQSPSSLSASLGDTITITCHASQNINVWLSWYQQKPGNIPKLLIYKASHLHTGVPSRLSGSGSGTGFTLTISSLQPEDIATYYCQQGQSYPFTFGSGTTLEIK
B2: SC16.21 (antibody, V domains shown)
VH: QVQLQQSGPELVKPGASVKISCKASGYAFSSSWMNWVKQRPGKGLEWIGRIYPGDGDTNYNGKFKGKATLTADKSSSTAYMQLSSLTSEDSAVYFCAMGIYNYDGSRYYSMDYWGQGTSVTVSS
VL: DIVMTQSPSSLAMSVGQKVTMSCKSSQSLLNSSNQKNYLAWYQQEPGQSPKLLVSFASTRESGVPDRFTGSGSGTDFTLTISGVQAEDLAVYYCQQHYSIPLTFGAGTKLELK
B3: SC16.23 (antibody, V domains shown)
VH: QVTLKESGPGILQPSQTLSLTCSFSGFSLSTSNTGIGWIRQPSGTGLEWLAHIWWNDDKYYNPSLKSRLTISKETSNNQVFLKITNVDTADTASYFCVQIGRDYSNYAWYFDVWGAGTTVTVSS
VL: QIVLTQSPAIMSASPGEKVTLTCSASSSVSSRYLYWYQQKPGSSPKLWIYSTSNLASGVPARFSGSGSGTSYSLIISSMEAEDAASYFCHQWSNYPLTFGAGTKLELK
B4: SC16.38 (antibody, V domains shown)
VH: EVQLQQSGAELVKPGASVKLSCTVSGFNIKDTYIHWVKQRPEQGLEWIGRIDPANGNTKYDPKFQGKATITADTSSNTAYLQLSSLTSEDTAVYYCARPTGYFEYWGQGTTLTVSS
VL: QIVLTQSPAIMSASPGEKVTMTCSASSSINYMHWYQQKPGTSPKRWIYDTSKLASGVPARFSGSGSGTSYSLTISSMEAEDAATYYCHQRSTWTFGGGTKLEIK
B5: SC16.20 (antibody, V domains shown)
VH: QVQLQQSGTELVRPGTSVRVSCKASGYAFGNHLIEWVKQRPGQGLEWIGVINPGTGGTHYNEKFKDKARLTADKSSNTAYMHLNSLTSDDSAVYFCARSPYDYHEGAMDYWGQGTSVTVSS
VL: EIQMTQSPSSMSASLGDRITITCQATQDIVKNLNWYQQKPGKPPSFLIYYATELAEGVPSRFSGSGSGSDYSLTIRNLESEDFADHYCLQFYEFPFTFGAGTKLELK
B6: SC16.45 (antibody, V domains shown)
VH: QVQLQQSGADLVRPGTSVKVSCKASGYSFTNYLIEWVKQRPGQGLEWIGVINPGSGGTHYNEKFKDKAVLTADKSSTTAHMQLSSLTSDDSAVYFCARSPYDYNDGAMDYWGQGTSVTVSS
VL: B5 VL with S60A, R76S, H86Y, Y87H
B7: SC16.52 (antibody, V domains shown)
VH: QVQLKESGPGLVAPSQSLSITCAVSGFSLTSFAIHWFRKPPGKGLEWLGVIWTGGTTNYNSALMSRLSISKDNSKSQVFLKMNSLQTDDTAMYYCARDDYDNNYAMDYWGQGTSVTVSS
VL: DIQMIQSPSSMFASLGDRVSLSCRASQGIRGTLDWYQQKPNGTIKLLIYSTSNLNSGVPSRFSGSGSGSDYSLTISSLESEDFADYYCLQRNAYPLTFGAGTKLELK
B8: SC16.49 (antibody, V domains shown)
VH: QVQLQQSGPELVKPGTLVKISCKASGYTFTSYDINWVKQRPGQGLEWIGWIYPGDGNTKYSEKFKGKATLTADKSSSTAYMQLTSLTSENSAVYFCARDYDYPFAYWGQGTLVTVSA
VL: DIKMTQSPSSMYASLGERVTITCKASQDINSYLSWFQQKPGKSPKTLIYRANRLVDGVPSRFSGSGSGQDYSLTITSLEYEDMGIYYCLQYDEFPLTFGAGTKLELK
B9: SC16.55 (antibody, V domains shown)
VH: EVQLVESGGGLVQPKGSLKLSCAVSAFTFTTYAMNWVRQAPGKGLEWVARIRNKSNNYATYYADSVKDRFTISRDDSQSMLYLQMNNLKIEDTAMYYCVFYYDYVYWGQGTLVTVSA
VL: B8 VL with S34N, T76S, L96Y, A100G, L106I
B10: SC16.5 (antibody, V domains shown)
VH: QVTLKESGPGILQPSQTLSLTCSFSGFSLSTSGMGVGWIRQPSGEGLEWLADIWWDDNKYYNPSLKSRLTISKDTSSNQVFLKITSVDTADTATYYCARRVNYVYDPYYAMDYWGQGTSVTVSS
VL: QIVLTQSPAIMSASPGEKVTMTCSASSSVSYMHWYQQKSGTSPKRWIYDTSKLASGVPARFSGSGSGTSYSLTISSMEAEDAATYYCQQWTRNPLTFGAGTKLELK
B11: SC16.25 (antibody, V domains shown)
VH: B10 VH with A51T, K83N, V104Y
VL: B10 VL with T50S, T91S, R92S
notes: murine mAb; V regions only
B12: SC16.29 (antibody, V domains shown)
VH: QVQLQQSGAELARPGASVKLSCKASGYTFTDQYINWVKQRTGQGLEWIGEIYPGRGNTYYNEKFKGKATLTADKSSSTAYMQLSSLTSEDSAVYFCAREDGGYDDAWFAYWGQGTLVTVSA
VL: QIVLTQSPAIMSASPGEKVTITCSASSSVSYMHWFQQKPGTSPKLWIYTTSNLASGVPARFSGSGSGTSYSLTVSRMEAEDAATYYCQQRSLYPYTFGGGTKVEIK
B13: SC16.47 (antibody, V domains shown)
VH: EVQLQQSGPELVKPGASVKISCKASGYSFSRFYMHWVKQSPENSLEWIGEINPSTGGTSYNQKFKGKATLTVDKSSSTAYMQLKSLTSEESAVYYCTRGYGSNCYFDVWGAGTTVTVST
VL: DVVLTQSPLSLPVNIGDQASISCKSTKSLLNSDGFTYLDWYLQRPGQSPQFLIYLVSNRFSGVPDRFSGSGSGTDFTLKISRVEAEDLGVYYCFQSNYLPLTFGAGTKLELR
B14: SC16.18 (antibody, V domains shown)
VH: EVKLEESGGGLVQPGESMKLSCAASGFTFSDAWMDWVRQSPEKGLEWVAEIRNKANNHATYYAESVKGKFTISRDDSKSRVYLQMNNLRAADTGIYYCTAYSNFAYWGQGTLVTVST
VL: DIQMTQTTSSLSASLGDRVTISCRASQNIINYLNWYQQKPDGTVKLLIYYTSRLHSGVPSRFSGSGSGTDYSLTISNLEPEDIATYYCQQYSERPYTFGGGTKLEIK
B15: SC16.39 (antibody, V domains shown)
VH: B14 VH with P14F, E16G, A63P, K69R, A91E, A100G, N103S, T117A
VL: B14 VL with N28D, I29V, G68R
B16: SC16.35 (antibody, V domains shown)
VH: DVQLQESGPGLVKPSQSLSLTCTVTGYSITSDYAWNWIRQFPGNKLEWMGYISYSGSTSYNPSLKSRISITRDTSKNQFFLQLNSVTTEDTATYYCARFYYGSSYAMDYWGQGTSVTVSS
VL: B14 VL with N28D, I30S, P80Q, Y87F, Y91G, S92N, E93T, R94L
B17: SC16.19 (antibody, V domains shown)
VH: EVQLQQSGAELVRPGASVKLSCTASGFNIKDSLLHWVKQRPEKGLEWIGWIDPEDGETKYAPNFQDKATITTDSSSNTAYLQLISLTSVDTAIYYCAYGNYVRHFDYWGQGTTLTVSS
VL: DIQMTQSPSSLSASLGGKVTFTCKASQDIHKYVAWYQHKPGKGPRLLIHYTSTLQPGISSRFSGSGSGRDYSFSISNLEPEDIATYYCLQYNNLYTFGGGTKLEIK
B18: SC16.42 (antibody, V domains shown)
VH: QIQLVQSGPELKKPGETVKISCKASGYTFTTAGMQWVQKMPGKGFKWIGWINTHSGEPKYADDFKGRFAFSLETSASTAYLQISNLKDEDTATFFCAPLWSDSSFAYWGQGTLVTVSA
VL: DVLMTQSPLSLSVSLGDQASISCRSSQNIVHSDRYTYLEWYLQKPGQSPKLLIYGVSNRFSGVPDRFSGSGSGTDFTLKISRVEAEDMGVYYCFQGTHVPYTFGGGTKLEIK
B19: SC16.3 (antibody, V domains shown)
VH: QVTLKESGPGILQPSQTLSLTCSFSGFSLSTSGMGVGWIRQPSGKGLEWLAHIWWDDVKRYNPALKSRLTISKDTSSSQVFLKIASVDTADTATYYCARIADYGGDYYAMDYWGQGTSVTVSS
VL: QIVLTQSPAIMSVSLGERVTMTCTASSSVSSSYLHWYQQKPGSSPKLWIYSTSNLASGVPARFSGSGSGTSYFFTISSMEAEDAATYYCHQYHRSPFTFGAGTKLKIR
B20: SC16.10 (antibody, V domains shown)
VH: QVTLKESGPGILQSSQTLSLTCSFSGFSLSTSGMGVGWIRQPSGKGLEWLAHIWWDDVKRYNPVLKSRLTISKDTSSSQVFLKIASVDTADTATYYCARLVDDLYYFDYWGQGTTLTVSS
VL: B19 VL with V13A, A61T, F73S, F74L, A101S, K106E, R108K
notes: murine mAb; V regions only
B21: SC16.30 (antibody, V domains shown)
VH: QVTLKESGPGILQPSQTLSLTCSFSGFSLSTSGMGVGWIRQPSGKGLEWLAHIWWDDVKRYKPALKSRLTVSKDTSSNQVFLKIATVDAADTGTYYCARIVDGHPPFAYWGQGTLVTVSA
VL: B19 VL with A9T, V13A, S30T, F73S, F74L, Y92F, A101S, K106E, R108K

These binders were tested against DLL3 (UniProt Q9NYJ7) (assay: screening on immobilized DLL3 or 293-hDLL3 cells).

binding, binds:
B1
B2
B3
B4
B5
B6
B7
B8
B9
B10
B11
B12
B13
B14
B15
B16
B17
B18
B19
B20
B21
